In PMC7819943, “Rice protein-binding microarrays: a tool to detect cis-acting elements near promoter regions in rice”:
This is one part of the list.

Chains of the proteins cited; added tags and fusions are not shown.
UniProt Q0JBA9, entry or part of it: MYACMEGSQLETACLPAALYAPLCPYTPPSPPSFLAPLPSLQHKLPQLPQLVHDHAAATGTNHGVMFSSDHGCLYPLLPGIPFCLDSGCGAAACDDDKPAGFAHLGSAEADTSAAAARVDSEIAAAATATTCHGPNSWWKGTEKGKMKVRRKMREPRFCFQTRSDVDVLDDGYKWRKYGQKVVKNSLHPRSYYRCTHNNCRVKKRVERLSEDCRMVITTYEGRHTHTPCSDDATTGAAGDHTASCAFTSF

target: OsWRKY34 (Oryza sativa, UniProt Q0JBA9 1-250); assay: protein-binding microarray (RPBM); PBS, 2% BSA, 51.3 ng/ul salmon testes DNA, 50 uM zinc acetate, 200 nM TF, 25 C, 1 h; high values mean tight binding; conditions: protein: recombinant; tags: N-terminal polyhistidine and DsRed monomer fusion (pET32a); label: CyDye5-dUTP incorporated in the synthesized complementary strand; 3' TTTTT single-stranded linker to array surface; dsDNA, one strand shown
Method in brief: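 A custom Agilent array was converted to double-stranded form by primer extension with Cy5-dUTP and blocked with 2% BSA. Protein at 200 nM in PBS with 2% BSA, salmon testes DNA and 50 µM zinc acetate was applied for 1 h at 25 °C, followed by washing. The proteins were polyhistidine–DsRed N-terminal fusions of transcription factors, expressed in E. coli BL21-CodonPlus and Ni–NTA-purified. The binding signal is per-feature fluorescence intensity (arbitrary units) from an Axon 4000B scanner.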

Sequence | binding signal
ACTATATCAGTACGCCACAATCCCGTTACATCTCTAAAATCGGAGTCACCTAGTGCAG | 9750 fluorescence intensity (a.u.)
TAGTCCACCTTTTATTACCCAAGTTTCAATTTGGACCACCCGGAGTCACCTAGTGCAG | 9740 fluorescence intensity (a.u.)
TCCTAACTCGAGTCTTTTTCTTCTCTCTACGCCAGAATTACGGAGTCACCTAGTGCAG | 11300 fluorescence intensity (a.u.)
ACCTACTTTTCGTCCCTTAATTCTGTGGCTATGTTCAAATCGGAGTCACCTAGTGCAG | 12700 fluorescence intensity (a.u.)
GGGGTTATAGATTGGATTTTTTTTAACGGAGGGAAGAGAGCGGAGTCACCTAGTGCAG | 10400 fluorescence intensity (a.u.)
ATACCACCTTATATACTTTGCCAAAACCACCTTTTCCAAGCGGAGTCACCTAGTGCAG | 9040 fluorescence intensity (a.u.)
TTGCATCACGTACGGATAAATCAAACGTCTTTTTTTTTTCCGGAGTCACCTAGTGCAG | 8800 fluorescence intensity (a.u.)
AATACCTTGGCCGCTCAATAGTAACCCAACGTGTTTCGCACGGAGTCACCTAGTGCAG | 9910 fluorescence intensity (a.u.)
GGTAGCCCGAGGTGGTGGTGGGTTCTGGAGGCGGTGAATCCGGAGTCACCTAGTGCAG | 10200 fluorescence intensity (a.u.)
ACTAAATTTGATTTTTCTTATTTTTGTTTTAAGGCCAACTCGGAGTCACCTAGTGCAG | 8270 fluorescence intensity (a.u.)
TCTGACACCTATCTCTCCTGGATTCTCCATGCTTTCTTTCCGGAGTCACCTAGTGCAG | 10300 fluorescence intensity (a.u.)
ATGCCCTGACTTTACCCAAACATCAGACTATGCATCTGAACGGAGTCACCTAGTGCAG | 8950 fluorescence intensity (a.u.)
TTGCTTGTGTTGGGCCGTAGGGTTTTTGTTTTTTTTTTTGCGGAGTCACCTAGTGCAG | 8410 fluorescence intensity (a.u.)
AATTTATAAAATTCATCGCATAAATTATTTGAATTTTGGTCGGAGTCACCTAGTGCAG | 8260 fluorescence intensity (a.u.)
AAAATTTTATTTTTCATGTGTGGCTTATTGTCCTTTTTTGCGGAGTCACCTAGTGCAG | 9470 fluorescence intensity (a.u.)
CTTATTAGTCATTTACAAGTTTACATGTCTCACTCAATTTCGGAGTCACCTAGTGCAG | 9260 fluorescence intensity (a.u.)
ACAACATGGTTTACCCTGCCAATTGTCCCAATGTCCCATTCGGAGTCACCTAGTGCAG | 8170 fluorescence intensity (a.u.)
CACACATTTATAAATGAGGCCTTCGTGCATGTCTTTATATCGGAGTCACCTAGTGCAG | 9760 fluorescence intensity (a.u.)
GGGCTCTGGTGGCGTTTCCCATTCCGCGCGCACCACACTGCGGAGTCACCTAGTGCAG | 9210 fluorescence intensity (a.u.)
CATTTTAGTATGTTAGACTGTGTATTGTTTGCTGTTAATTCGGAGTCACCTAGTGCAG | 9120 fluorescence intensity (a.u.)
TACTCCATTTGGGGCCTCCACTTGATTGTTCTTTCTTGCTCGGAGTCACCTAGTGCAG | 9040 fluorescence intensity (a.u.)

Sequence | binding signal
TCTCATTTACGCTTCATTCACTTTGCCTGCAACCAATCGCCGGAGTCACCTAGTGCAG | 8690 fluorescence intensity (a.u.)
TCTCGTGTTTTATGCTTAACAGAGCTCTTGTTTCTGGCATCGGAGTCACCTAGTGCAG | 8900 fluorescence intensity (a.u.)
ACCATCCTACATCAAGGAAACGTCTCGAGCCACCTCGCCGCGGAGTCACCTAGTGCAG | 9050 fluorescence intensity (a.u.)
TGTAGTATAGTGTGTGTGTGTGTGTATATATATATATATACGGAGTCACCTAGTGCAG | 8170 fluorescence intensity (a.u.)
GAGCTTCGACGACGCCGGCTTTGGCCCTGTCCCCGCCAGGCGGAGTCACCTAGTGCAG | 9230 fluorescence intensity (a.u.)
GGAAAAGAACACCGGTCCATTTTGCAACTATTGTGAAGTTCGGAGTCACCTAGTGCAG | 8220 fluorescence intensity (a.u.)
CTCAGCTTCCGTTATTACCTCTGCGCACAAGTTACCGGGCCGGAGTCACCTAGTGCAG | 8720 fluorescence intensity (a.u.)
AATCTATTGTTGCCACTTTTTTGTGCTTTTAAATTAGTCACGGAGTCACCTAGTGCAG | 10800 fluorescence intensity (a.u.)
CTGCTGTATTCACATATCAGATCTGGTTCAAACGAACTTCCGGAGTCACCTAGTGCAG | 9100 fluorescence intensity (a.u.)
TTTGTTCGGTTGTGGGTTTTGAGATAAGAAATTATTATCACGGAGTCACCTAGTGCAG | 8080 fluorescence intensity (a.u.)
CTTTTTGCTTCACTCTGTGTCCATCTTGACCTGCATGGCTCGGAGTCACCTAGTGCAG | 9900 fluorescence intensity (a.u.)
GCGCGGCGTTGTTGGGTGTGTTCGTGAATCGGGCGGGATGCGGAGTCACCTAGTGCAG | 10500 fluorescence intensity (a.u.)
AGAATGTCTTGCGCGCTAACCACACTTATCGCGTGATTTTCGGAGTCACCTAGTGCAG | 8120 fluorescence intensity (a.u.)
GTTTTATTTTTTCAAGCAGACAAAATATTTTCACTTTTACCGGAGTCACCTAGTGCAG | 9870 fluorescence intensity (a.u.)
CCTTAGCCGCGCTCGCCACCACCTCCTCACTCCTCTCACTCGGAGTCACCTAGTGCAG | 8770 fluorescence intensity (a.u.)
TCGCCTACCCGCTGCAACCATACCCCACCCGACATGGACCCGGAGTCACCTAGTGCAG | 9190 fluorescence intensity (a.u.)
TTTGTTGTGTGTTCTCCTCTTTGTTGAGGTGTAAATCTAACGGAGTCACCTAGTGCAG | 8060 fluorescence intensity (a.u.)
CCAACGGCCCACCCTATAGCTAGCGCCACCACCGACACCACGGAGTCACCTAGTGCAG | 9090 fluorescence intensity (a.u.)
TGATTAATTTGGTCAAATCTTTGTGATGATTTTTGCTCCTCGGAGTCACCTAGTGCAG | 8590 fluorescence intensity (a.u.)
TGTGTACATCTACACCACAATACCGTACCCTACATCTCTCCGGAGTCACCTAGTGCAG | 11900 fluorescence intensity (a.u.)
GGTACCCATAATCTCCACGTGATCTTTTTTATTTTTGTTCCGGAGTCACCTAGTGCAG | 11300 fluorescence intensity (a.u.)

Sequence | binding signal
GCACTTTATCTTAACTATCTTAGTCTGTATGGTTTTTCTGCGGAGTCACCTAGTGCAG | 8280 fluorescence intensity (a.u.)
ATATAACGTTTGACTCCTCGTCTTATTTAAAAATTTTCTACGGAGTCACCTAGTGCAG | 10700 fluorescence intensity (a.u.)
TGACTTTTTAGCATATGTTTGACCGTTCGTCTTATTCAAACGGAGTCACCTAGTGCAG | 13600 fluorescence intensity (a.u.)
ATGTTAAGTTTCAGCATATAAACTTCTGCTGTCTCTGTTACGGAGTCACCTAGTGCAG | 8380 fluorescence intensity (a.u.)
GTTTGTTACTTGTATTTCATTACGATTTATCTGTCGTACCCGGAGTCACCTAGTGCAG | 9640 fluorescence intensity (a.u.)
GGCTGGTTTGGTTGGTTGAGAATACCTTTTCTTTTTCCTTCGGAGTCACCTAGTGCAG | 29100 fluorescence intensity (a.u.)
ACGTACGATCACCACATGTAAATCGGTCAAGTCCAACACTCGGAGTCACCTAGTGCAG | 8030 fluorescence intensity (a.u.)
GGCGGGGCGGTGGCGTTGGTCCCGCCGCGGCGGGGCTTGCCGGAGTCACCTAGTGCAG | 8030 fluorescence intensity (a.u.)
CATAATTTGTGCTAAGTGCTAACAGTCTTCATTTGTTTTCCGGAGTCACCTAGTGCAG | 10400 fluorescence intensity (a.u.)
ATTACACTTTTCTCATGTAACATCTCCGGTGGTTTGAGCACGGAGTCACCTAGTGCAG | 10400 fluorescence intensity (a.u.)
TAGAACTTAGAAGGCTATGTTTGGTACTTCCTCGTTTCACCGGAGTCACCTAGTGCAG | 9000 fluorescence intensity (a.u.)
GGTGGTCTTCTTTCCCGCATCCTCTTCGCCACTTATATTGCGGAGTCACCTAGTGCAG | 8180 fluorescence intensity (a.u.)
GCCTCCTCCTCGCGCGCACCCGCCGGAGCCGCCTCACCCTCGGAGTCACCTAGTGCAG | 11200 fluorescence intensity (a.u.)
TTTATTTTCTCGATATGTGTTTATAGCTAGCTCTTACTTTCGGAGTCACCTAGTGCAG | 12300 fluorescence intensity (a.u.)
ACGCCGTTGACTTTTTTAAACATGTTTAACCGTTCATCTTCGGAGTCACCTAGTGCAG | 47400 fluorescence intensity (a.u.)
GCACACCACCAACCTGACCAGCTGCCAGCTCTCACTTTCTCGGAGTCACCTAGTGCAG | 9160 fluorescence intensity (a.u.)
ACTTTCCACATCAAGCATGCGCACATCTTCCTTGATCATCCGGAGTCACCTAGTGCAG | 8590 fluorescence intensity (a.u.)
GTTTGCCGATCATATGCTCTCTTTCTCTCTTCATACTCAACGGAGTCACCTAGTGCAG | 8990 fluorescence intensity (a.u.)
TCTTCAAGCAACCACCAGCCATCGTTGTCAACAACATTGACGGAGTCACCTAGTGCAG | 8600 fluorescence intensity (a.u.)
TTGTGTTCTTGTTCCTACTTTGAAATGTAATTGTGATTTTCGGAGTCACCTAGTGCAG | 8550 fluorescence intensity (a.u.)
CGTCACCACGCCACACCCCATTCGCTCGTTAACGGGTCCGCGGAGTCACCTAGTGCAG | 10200 fluorescence intensity (a.u.)

Part of the list above in a different format:
CACACATTTATAAATGAGGCCTTCGTGCATGTCTTTATATCGGAGTCACCTAGTGCAG
  binding signal: 9760 fluorescence intensity (a.u.)
CATTTTAGTATGTTAGACTGTGTATTGTTTGCTGTTAATTCGGAGTCACCTAGTGCAG
  binding signal: 9120 fluorescence intensity (a.u.)
CATAATTTGTGCTAAGTGCTAACAGTCTTCATTTGTTTTCCGGAGTCACCTAGTGCAG
  binding signal: 10400 fluorescence intensity (a.u.)
GTTTGCCGATCATATGCTCTCTTTCTCTCTTCATACTCAACGGAGTCACCTAGTGCAG
  binding signal: 8990 fluorescence intensity (a.u.)

Already shown: entries from further up.
Sequence | binding signal
ACCATCCTACATCAAGGAAACGTCTCGAGCCACCTCGCCGCGGAGTCACCTAGTGCAG | 9050 fluorescence intensity (a.u.)
TGTAGTATAGTGTGTGTGTGTGTGTATATATATATATATACGGAGTCACCTAGTGCAG | 8170 fluorescence intensity (a.u.)

Further results follow.

Sequence | binding signal
CGTTAGTCCGTTTTGCTTTTCTTATTGTAGTTCAGTTCTTCGGAGTCACCTAGTGCAG | 8350 fluorescence intensity (a.u.)
TGATTTTTTGCCCCTGCACTTCTCCTCCTTTTGCTCGGGGCGGAGTCACCTAGTGCAG | 8830 fluorescence intensity (a.u.)
ATAAGGGCAGATTTTGTCGTAAGCAATGATTGGATTTCACCGGAGTCACCTAGTGCAG | 8580 fluorescence intensity (a.u.)
AACTCCTTGGGTCCCAGCTTCACCGGCTTCGCCTCCTCTTCGGAGTCACCTAGTGCAG | 8970 fluorescence intensity (a.u.)
ATCGTCTTCCACCATGTACCACAAGTCCACAACACACTGGCGGAGTCACCTAGTGCAG | 8610 fluorescence intensity (a.u.)
GCGGCCACCTCTCCCGCGCTCACCACCTGTTCGATCAAATCGGAGTCACCTAGTGCAG | 11500 fluorescence intensity (a.u.)
TTAGGGAAAAAAATGTTTGTATGTGTCAGTTCCGATTTCCCGGAGTCACCTAGTGCAG | 8880 fluorescence intensity (a.u.)
TAACTCATGTGTACCTACACCCTCCTAAGTATCCTCTCAACGGAGTCACCTAGTGCAG | 8310 fluorescence intensity (a.u.)
TTGTGCTGGTTTTGGTTTTGGTTTTGGGTTGCATGTATGTCGGAGTCACCTAGTGCAG | 9790 fluorescence intensity (a.u.)
TTACCCCGGTTTCTTCCGCGGTTTTTCCTCGTCCTGTGCACGGAGTCACCTAGTGCAG | 9040 fluorescence intensity (a.u.)
TGGCAGGGTTGCATGGTTCTGGAGGGCGGGCTGTTATATTCGGAGTCACCTAGTGCAG | 13500 fluorescence intensity (a.u.)
AGCTCGAGCTCATTCGCATTCCGGAGGGGAGGGAGGGATGCGGAGTCACCTAGTGCAG | 10400 fluorescence intensity (a.u.)
TTCTTCTGCTATTTGTTTCTCCTCCTATCTCCAAATCTAACGGAGTCACCTAGTGCAG | 8660 fluorescence intensity (a.u.)
CCTGCGTTCTCTGCTTGCCATCGGCTCCACGATCCCCAACCGGAGTCACCTAGTGCAG | 10700 fluorescence intensity (a.u.)
TCTATTAATTTGCTACCCTTTCTGCATCACGGCCCTTATTCGGAGTCACCTAGTGCAG | 8280 fluorescence intensity (a.u.)
TGGTTGGGGAGGAGCGCCCATAATTAGAGCCCTGGGATGTCGGAGTCACCTAGTGCAG | 8480 fluorescence intensity (a.u.)
GTGTGTTCAGGTCAGTTCGCGTGCATCGTGTGTGTGTTTGCGGAGTCACCTAGTGCAG | 8430 fluorescence intensity (a.u.)
AGCGATGCTGAAAGCGCCGGCCACTCCAACGCCATCACTCCGGAGTCACCTAGTGCAG | 8370 fluorescence intensity (a.u.)
GGCGTCATCTAAACTCAAAATATCTTACGGTTGGTTTCTACGGAGTCACCTAGTGCAG | 8510 fluorescence intensity (a.u.)
GTGTAGGTCTGGCTCTAGCTGTTGGTGAGGGAAAAAAAAACGGAGTCACCTAGTGCAG | 9550 fluorescence intensity (a.u.)
TATTAGATTACTTGCCGTGTTGCGATGGTTCAAGCTGTTACGGAGTCACCTAGTGCAG | 8850 fluorescence intensity (a.u.)
